The results in this text go back to US20230332164A1 (SYNLOGIC OPERATING, published 2023).

Amino acid sequences for entries named in this document (tags omitted). Residues count along the entry.
UniProt Q02242, residues 25-288: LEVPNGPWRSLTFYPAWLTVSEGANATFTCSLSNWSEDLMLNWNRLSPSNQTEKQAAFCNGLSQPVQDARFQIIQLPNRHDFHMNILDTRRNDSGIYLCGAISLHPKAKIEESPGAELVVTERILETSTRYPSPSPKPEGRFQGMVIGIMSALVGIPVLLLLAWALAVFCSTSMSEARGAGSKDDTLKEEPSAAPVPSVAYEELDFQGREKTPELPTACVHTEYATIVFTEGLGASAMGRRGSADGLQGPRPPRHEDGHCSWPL

These are yes or no findings as the source states them, for the method shown. Some results given as binding are weak or reduced against the parent protein; the word gives no strength. For some of these results: Sequences can lack the tags named with a protein.

Experiment [1] concerns the target PD1 on the surface of mouse EL4 cells (mouse) (UniProt Q02242). Put plainly: flow cytometry on EL4 cells, 0, 2, 5 and 15 ul of extract (FIG. 20). On the technique in general: Flow cytometry measures light scatter and fluorescence of single cells or particles in a stream.
For experiment [2] the target is unchanged. The experiment can be described thus: flow cytometry on EL4 cells (FIG. 19 legend).
For experiment [3] the target is unchanged. The experiment can be described thus: flow cytometry on EL4 cells, anti-V5-FITC detection; dose-dependent staining at 0, 2, 5 and 15 uL.
Experiment [4] deals with T1, CD47 on mouse CT26 cells (mouse, UniProt Q61735 19-303).
T1 construct: whole, on cells; also called CD47 on CT26 cells; murine CD47 on CT26 cells
T1 sequence (looked up): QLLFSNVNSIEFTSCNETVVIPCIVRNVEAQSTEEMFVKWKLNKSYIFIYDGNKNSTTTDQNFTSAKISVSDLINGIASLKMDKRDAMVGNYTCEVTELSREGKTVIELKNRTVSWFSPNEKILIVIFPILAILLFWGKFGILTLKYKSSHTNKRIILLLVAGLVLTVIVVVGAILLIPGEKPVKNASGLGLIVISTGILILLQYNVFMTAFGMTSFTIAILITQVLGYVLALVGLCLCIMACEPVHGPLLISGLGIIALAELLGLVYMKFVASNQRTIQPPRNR
The experiment can be described thus: flow cytometry on CT26 cells, 10x concentrated supernatant.

Experiment [5] has as its target T1, CD47 on mouse CT26 cells. Put plainly: flow cytometry on CT26 cells (FIG. 24 legend).
Experiment [6] has as its target T2, mouseCD47, plate coating (mouse) (UniProt Q61735).
T2 sequence (looked up): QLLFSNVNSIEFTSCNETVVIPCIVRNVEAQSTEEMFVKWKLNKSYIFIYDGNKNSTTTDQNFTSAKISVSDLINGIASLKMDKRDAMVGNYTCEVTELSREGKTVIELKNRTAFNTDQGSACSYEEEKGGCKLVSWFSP
The experiment can be described thus: ELISA, mCD47-coated plate. (An ELISA detects its analyte on a solid surface through an enzyme-linked reagent.)

B1: secreted anti-PD1-scFv-V5 (FLAG-J43scFv-V5-HIS secreted from E. coli Nissle) (scFv, not shown: small tags and cut ends)
scFv: MQLEVRLLESGGGLVKPEGSLKLSCVASGFTFSDYFMSWVRQAPGKGLEWVAHIYTKSYNYATYYSGSVKGRFTISRDDSRSMVYLQMNNLRTEDTATYYCTRDGSGYPSLDFWGQGTQVTVSSGGGGSGGGGSGGGGSYELTQPPSASVNVGETVKITCSGDQLPKYFADWFHQRSDQTILQVIYDDNKRPSGIPERISGSSSGTTATLTIRDVRAEDEGDYYCFSGYVDSDSKLYVFGSGTQLTVLGKGELNSKLEGKPIPNPLLGLDSTRTGHHHHHH
With B1, the binding entry in experiment [1], in experiment [2] and in experiment [3] was “binds” in each case.

B2: WT mSIRPα (32-373), secreted by SYN2996 (receptor)
chain: VDYKDDDDKQLGGGKELKVTQPEKSVSVAAGDSTVLNCTLTSLLPVGPIKWYRGVGQSRLLIYSFTGEHFPRVTNVSDATKRNNMDFSIRISNVTPEDAGTYYCVKFQKGPSEPDTEIQSGGGTEVYVLAKPSPPEVSGPADRGIPDQKVNFTCKSHGFSPRNITLKWFKDGQELHHLETTVNPSGKNVSYNISSTVRVVLNSMDVHSKVICEVAHITLDRSPLRGIANLSNFIRVSPTVKVTQQSPTSMNQVNLTCRAERFYPEDLQLIWLENGNVSRNDTPKNLTKNTDGTYNYTSLFLVNSSAHREDVVFTCQVKHDQQPAITRNHTVLGLAHSSDQGSMQTFPGNNATHNWNKGELNSKLEGKPIPNPLLGLDSTDPNSSSVDHHHHHH
Turning to B2, the binding entry (in the experiment with CD47 on mouse CT26 cells [4]; with CD47 on mouse CT26 cells [5]; in experiment [6]) was “binds” throughout.

B3: anti-mCD47 scFv, secreted by SYN3161 (scFv)
scFv: QVKLLQSGAALVKPGASVKMSCQASGYSFTDYWVTWVKQSHGQSLEWIGEIYPSNTVTNFNDNFKGKATLTVDKSTSTAYMELSRLTSEDSAIYYCTRIGNSGYRVGWFIYWGQGTLVTVLSGGGGSGGGGSGGGGSDTVLTQSPALAVSPGERVTISCKASESVSSHMHWYQQKPGQQPKLLIYKASNLASGVPARFSGSGSGTDFTLTIDPVEADDTATYFCQQGWNGPFTFGAGTRLELKRADAAGSGELGGSGKPIPNPLLGLDSTGSGHHHHHH
In the case of B3, in experiment [6], the binding entry was “binds”.
